From paper PMC12235606
These are yes or no findings as the source states them, for the method shown. Binding seen in cells or lysates may run through a third protein. Some results given as binding are weak or reduced against the parent protein; the word gives no strength.

Target: T1, Ribonucleotide reductase regulatory subunit M2 (RRM2) (human (endogenous in A2780/DDP)) (UniProt P31350)
T1 sequence: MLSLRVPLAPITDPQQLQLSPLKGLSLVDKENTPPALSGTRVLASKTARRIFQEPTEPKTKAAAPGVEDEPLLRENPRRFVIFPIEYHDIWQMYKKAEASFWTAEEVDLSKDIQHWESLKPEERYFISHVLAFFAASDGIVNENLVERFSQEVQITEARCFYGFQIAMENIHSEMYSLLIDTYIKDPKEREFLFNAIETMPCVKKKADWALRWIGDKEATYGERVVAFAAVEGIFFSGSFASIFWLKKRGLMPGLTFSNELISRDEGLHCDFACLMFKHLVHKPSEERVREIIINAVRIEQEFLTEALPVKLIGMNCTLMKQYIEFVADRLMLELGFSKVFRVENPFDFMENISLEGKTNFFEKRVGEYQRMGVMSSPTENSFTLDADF
Assay: co-IP; A2780/DDP cell lysates (Western blotting and IP lysis buffer with protease inhibitors) incubated overnight with Protein A + G beads carrying anti-RRM2 antibody or normal IgG; washed four times; Western blot for RRM2 and CDCA7

binding: binds
B1: cell division cycle associated 7 (CDCA7) (protein, UniProt Q9BWT1 1-371)
chain: MDARRVPQKDLRVKKNLKKFRYVKLISMETSSSSDDSCDSFASDNFANTRLQSVREGCRTRSQCRHSGPLRVAMKFPARSTRGATNKKAESRQPSENSVTDSNSDSEDESGMNFLEKRALNIKQNKAMLAKLMSELESFPGSFRGRHPLPGSDSQSRRPRRRTFPGVASRRNPERRARPLTRSRSRILGSLDALPMEEEEEEDKYMLVRKRKTVDGYMNEDDLPRSRRSRSSVTLPHIIRPVEEITEEELENVCSNSREKIYNRSLGSTCHQCRQKTIDTKTNCRNPDCWGVRGQFCGPCLRNRYGEEVRDALLDPNWHCPPCRGICNCSFCRQRDGRCATGVLVYLAKYHGFGNVHAYLKSLKQEFEMQA
